From patent US11566168B1, “Biocide blend for treating wellbores” (Halliburton Energy Services, Inc., priority 2021, dated 2023)

Assay: Properties that a biocide or blend possesses (Table 1)
Description: Some of the desirable properties can include maintaining biocidal activity in fluids having a high salinity or a high concentration of total dissolved solids, thermal stability, maintaining biocidal activity in the presence of ammonia or primary amines, quick kill, maintaining biocidal activity for extended periods of time—also known as persistence, and no interaction between the biocide and other additives having a negative charge (anions) within a treatment fluid.
The second property can be different. […] It is to be understood that unlike a triazine compound, glutaraldehyde is not a formaldehyde-releasing biocide.

Compound | Persistence
1,3,5-triazine | Yes
O=CCCCC=O [Glutaraldehyde, glutaraldehyde, reference compound] | No
